# Experimental data taken from publication PMC12431657, “Discovery and mechanistic insights of dibenzoylmethane as a broad spectrum inhibitor of coronavirus” (PLOS Pathogens, 2025).
# Where a name gives a salt, the structure may show the parent alone. Read-outs that look alike come from different tables or passages of the source. Hit rate of the full screen: of about 3,300 compounds, about 95 (3%) showed an effect of 50% or more. The list shows a part of the results.
# Test system: HCoV-229E
# Parameters: species or system Huh-7; HTS, protection from HCoV-229E induced cell death, luminescent cell viability (CellCounting-Lite 2.0), inhibition rate
smiles,measurement,setting,value
C[C@@]12C[C@@H](c3ccoc3)OC(=O)[C@@H]1CC[C@]1(C)[C@H]2[C@@H]2C=C[C@@]1(O)C(=O)O2 [Columbin],229E Inhibition rate,"24 h, 10 µM; inhibitor",9.6%
C/C=C(/C)C(=O)O[C@H]1[C@@H]2[C@H](C)C(=O)O[C@@H]2C[C@@H](C)[C@@H]2C=CC(=O)[C@]21C [Brevilin A],229E Inhibition rate,"24 h, 10 µM; inhibitor",29.3%
CCN1C[C@]2(C)CC[C@H](OC)[C@@]34C1[C@]1(OCO[C@@]15C[C@H](OC)[C@H]1C[C@]3(O)[C@@H]5[C@H]1OC)[C@@H](OC(C)=O)[C@H]24 [Deltaline],229E Inhibition rate,"24 h, 10 µM; inhibitor",2.6%
COC1=C[C@@H]2[C@@H]3Cc4ccc(OC)c(O)c4[C@]2(CCN3C)CC1=O [Sinomenine],229E Inhibition rate,"24 h, 10 µM, inhibitor",23.8%
O=c1ccc2ccc3occc3c2o1 [Angelicin],229E Inhibition rate,"24 h, 10 µM; inhibitor",9.8%
COc1ccc(/C=C/c2cc(OC)cc(OC)c2)cc1 [trans-Trimethoxyresveratrol],229E Inhibition rate,"24 h, 10 µM; inhibitor",38.6%
C[C@@H]1CC[C@@]2(OC1)O[C@H]1[C@@H](O)[C@H]3[C@@H]4CC[C@H]5C[C@@H](O[C@@H]6O[C@H](CO)[C@H](O[C@@H]7O[C@H](CO)[C@@H](O)[C@H](O[C@@H]8OC[C@@H](O)[C@H](O)[C@H]8O)[C@H]7O[C@@H]7O[C@H](CO)[C@H](O)[C@H](O[C@@H]8O[C@H](CO)[C@@H](O)[C@H](O)[C@H]8O)[C@H]7O)[C@H](O)[C@H]6O)[C@H](O)C[C@]5(C)[C@H]4CC[C@]3(C)[C@H]1[C@@H]2C [Digitonin],229E Inhibition rate,"24 h post infection, 1 h compound pre-incubation; 10 µM; inhibitor",13.7%
"Oc1c(Br)cccc1Br [2,6-Dibromophenol]",229E Inhibition rate,"24 h, 10 µM; inhibitor",21.2%
CC(C)[C@@H]1NC(=O)[C@H](C)OC(=O)[C@@H](C(C)C)NC(=O)[C@@H](C(C)C)OC(=O)[C@H](C(C)C)NC(=O)[C@H](C)OC(=O)[C@@H](C(C)C)NC(=O)[C@@H](C(C)C)OC(=O)[C@H](C(C)C)NC(=O)[C@H](C)OC(=O)[C@@H](C(C)C)NC(=O)[C@@H](C(C)C)OC1=O [Valinomycin],229E Inhibition rate,"24 h, 10 µM; inhibitor",90.8%
C[C@H]1CCCC(=O)CCC/C=C/c2cc(O)cc(O)c2C(=O)O1 [Zearalenone],229E Inhibition rate,"24 h, 10 µM; inhibitor",43.3%
C[C@H]1CCC[C@@H](O)CCCCCc2cc(O)cc(O)c2C(=O)O1 [Beta-Zearalanol],229E Inhibition rate,"24 h, 10 µM; inhibitor",0%
CC(=O)OC(C)(C)/C=C/C(=O)[C@](C)(O)[C@H]1[C@H](O)C[C@@]2(C)[C@@H]3CC=C4[C@H](C[C@H](O)C(=O)C4(C)C)[C@]3(C)C(=O)C[C@]12C [Cucurbitacin B],229E Inhibition rate,"24 h, 10 µM; inhibitor",36.8%
CC1=C[C@@H]2C(=O)[C@]3(C=C(C)[C@H](O)[C@@]3(O)[C@@H]1O)[C@H](C)C[C@@H]1[C@H]2C1(C)C [20-Deoxyingenol],229E Inhibition rate,"24 h, 10 µM; inhibitor",10.8%
CC(C)=CCCC1=CC(=O)c2c(O)ccc(O)c2C1=O [Deoxyshikonin],229E Inhibition rate,"24 h, 10 µM; inhibitor",9.8%
CCC(=O)c1cc2c(cc1O)OCO2 [Kakuol],229E Inhibition rate,"24 h, 10 µM; inhibitor",8.6%
N[C@@H](CNC(=O)C(=O)O)C(=O)O [Dencichine],229E Inhibition rate,"24 h, 10 µM; inhibitor",6.8%
CCN1C[C@]2(COC)[C@H](O)C[C@H](OC)[C@@]34[C@@H]5C[C@]6(O)[C@@H](OC)C[C@@](OC(C)=O)([C@H]5[C@H]6OC(=O)c5ccccc5)[C@@H]([C@H](OC)[C@H]23)[C@@H]14 [Indaconitine],229E Inhibition rate,"24 h, 10 µM; inhibitor",10.3%
Cc1ccc(C=O)cc1 [p-Tolualdehyde],229E Inhibition rate,"24 h, 10 µM; inhibitor",23.1
COC1=C[C@@H]2[C@@H]3Cc4ccc(OC)c(O)c4[C@]2(CCN3C)CC1=O [Sinomenine hydrochloride],229E Inhibition rate,"24 h, 10 µM, inhibitor",38.1%
Cc1cc(=O)[nH]c(=O)[nH]1 [6-Methyluracil],229E Inhibition rate,"24 h, 10 µM; inhibitor",41.3
C=C1[C@H](OC(=O)c2ccccc2)C[C@H]2[C@@H](/C=C(\C)C(=O)[C@@]3(OC(C)=O)C[C@H](C)[C@H](OC(=O)c4ccccc4)[C@@H]3[C@H]1OC(C)=O)C2(C)C [Euphorbia Factor L2],229E Inhibition rate,"24 h, 10 µM; inhibitor",27.4%
C/C=C1\C[C@@H](C)[C@](O)(CO)C(=O)OCC2=CC[N+]3([O-])CC[C@@H](OC1=O)[C@@H]23 (some centres unmarked) [Usaramine N-oxide],229E Inhibition rate,"24 h, 10 µM; inhibitor",19.1%
CCN1C[C@]2(COC)CC[C@H](OC)[C@]34C1[C@H](C[C@H]23)[C@@]1(O)C[C@H](OC)[C@H]2C[C@@H]4[C@@H]1[C@H]2O [Talatisamine],229E Inhibition rate,"24 h, 10 µM; inhibitor",24%
CC(C)=CCC/C(C)=C/CC/C(C)=C/CC[C@]1(C)CCc2cc(O)c(C)c(C)c2O1 [γ-Tocotrienol],229E Inhibition rate,"24 h, 10 µM; inhibitor",20.7
C[C@]12CC[C@@H](O)C[C@@H]1CC[C@@H]1[C@@H]2CC[C@]2(C)C(=O)CC[C@@H]12 [Androsterone],229E Inhibition rate,"24 h, 10 µM; inhibitor",52.3%
COc1ccc(C=O)cc1OC [Veratraldehyde],229E Inhibition rate,"24 h, 10 µM; inhibitor",17.4%

# Nothing new here: entries from further up.
smiles,measurement,setting,value
"Oc1c(Br)cccc1Br [2,6-Dibromophenol]",229E Inhibition rate,"24 h, 10 µM; inhibitor",21.2%
CC(C)[C@@H]1NC(=O)[C@H](C)OC(=O)[C@@H](C(C)C)NC(=O)[C@@H](C(C)C)OC(=O)[C@H](C(C)C)NC(=O)[C@H](C)OC(=O)[C@@H](C(C)C)NC(=O)[C@@H](C(C)C)OC(=O)[C@H](C(C)C)NC(=O)[C@H](C)OC(=O)[C@@H](C(C)C)NC(=O)[C@@H](C(C)C)OC1=O [Valinomycin],229E Inhibition rate,"24 h, 10 µM; inhibitor",90.8%
